Measured values as given in EP4831167A1, “AROMATIC HETEROCYCLIC COMPOUND, AND PREPARATION METHOD THEREFOR AND USE THEREOF” (dated 2026).
The match of structure and compound is tentative.

Chains of the proteins cited; added tags and fusions are not shown. Residues count along the entry.
UniProt P19099, 25-503 limits assumed: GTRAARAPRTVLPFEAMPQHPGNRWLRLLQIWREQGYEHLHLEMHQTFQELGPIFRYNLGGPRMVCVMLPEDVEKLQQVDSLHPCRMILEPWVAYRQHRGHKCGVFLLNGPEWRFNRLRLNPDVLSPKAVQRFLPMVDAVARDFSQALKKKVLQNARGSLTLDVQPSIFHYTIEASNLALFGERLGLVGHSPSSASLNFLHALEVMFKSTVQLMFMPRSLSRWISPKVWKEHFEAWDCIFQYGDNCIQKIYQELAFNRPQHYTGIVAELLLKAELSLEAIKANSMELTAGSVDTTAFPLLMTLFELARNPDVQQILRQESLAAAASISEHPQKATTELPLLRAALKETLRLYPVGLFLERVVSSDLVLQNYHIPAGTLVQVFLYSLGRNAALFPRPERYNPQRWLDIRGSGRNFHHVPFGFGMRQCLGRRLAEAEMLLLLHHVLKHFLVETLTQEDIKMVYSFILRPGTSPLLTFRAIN
UniProt P15538, 25-503 limits assumed: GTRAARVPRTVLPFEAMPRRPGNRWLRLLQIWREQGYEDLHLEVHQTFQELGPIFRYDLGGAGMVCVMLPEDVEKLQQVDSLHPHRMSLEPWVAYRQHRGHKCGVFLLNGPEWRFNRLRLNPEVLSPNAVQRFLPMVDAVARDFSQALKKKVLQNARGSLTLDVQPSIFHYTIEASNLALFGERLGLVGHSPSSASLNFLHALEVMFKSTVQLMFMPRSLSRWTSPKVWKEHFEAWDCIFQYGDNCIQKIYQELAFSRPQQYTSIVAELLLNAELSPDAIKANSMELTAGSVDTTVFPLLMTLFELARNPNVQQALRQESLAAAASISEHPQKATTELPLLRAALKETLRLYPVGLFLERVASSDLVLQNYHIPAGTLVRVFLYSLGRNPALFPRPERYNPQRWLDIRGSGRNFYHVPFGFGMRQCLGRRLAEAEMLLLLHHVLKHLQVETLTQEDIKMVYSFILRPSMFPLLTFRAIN

Key:
[1] = molecular target: human aldosterone synthase (CYP11B2) (Homo sapiens, UniProt P19099); assay: Assay of human aldosterone synthase (CYP11B2) inhibition; settings: G402 cell line stably overexpressing human CYP11B2; substrate 11-deoxycorticosterone (11-DOC); 24 h incubation; aldosterone in supernatant by HTRF
Description: Experimental reagents and instruments: Aldosterone kit (Cisbio, Cat#64ALDPEG); Envision plate reader (PerkinElmer).
Experimental principle and method: In humans, aldosterone synthase (CYP11B2) catalyses the conversion of 11-deoxycorticosterone (11-DOC) to aldosterone through a series of metabolic processes. In this experiment, a G402 cell line stably overexpressing-Human CYP11B2 was established in vitro (according to Valentin-Goyco J, et al. Selectivity of osilodrostat as an inhibitor of human steroidogenic cytochromes P450. J Steroid Biochem Mol Biol. 2023, 231:106316). The cells were incubated with 11-deoxycorticosterone (11-DOC) as the substrate, the test compound was added simultaneously. After co-incubation, the supernatant was collected, and aldosterone levels in the supernatant were then measured by HTRF assay. The inhibitory effect of the compound on aldosterone synthase (CYP11B2) was calculated based on aldosterone concentration.
(§1) Experimental steps: 11-Deoxycorticosterone (11-DOC) was added to the wells of a plate pre-seeded with the cells (10,000 cells/well) 24h prior to assay initiation. Then, the compound diluted to different concentrations was added to the corresponding wells and mixed thoroughly. Control wells were set up simultaneously. The final concentration of DMSO was 0.1%. The plate was placed in a 37°C/5% CO2 humidified incubator and incubated for 24 h. Post-incubation, 10 µL supernatant was added to a 384-well plate. 5 µL of Acceptor working solution and 5 µL of Donor Antibody were added to each well, followed by centrifugation at 1000 rpm for 1 minute. The plate was incubated at room temperature for 60-120 minutes. Finally, the fluorescence signal ratio at 665 nm/615 nm was measured using an Envision plate reader (PerkinElmer).
(§2) Experimental data processing method: Test data were processed and analysed using GraphPad Prism 5 software. First, the mean reaction signal values of the high-signal control wells and low-signal control wells were calculated separately. Then, the reaction inhibition rate for each compound well was calculated according to the following formula: Inhibition rate (%) = 100 - (Mean of high-signal control group - Signal value of individual well) / (Mean of high-signal control group - Mean of low-signal control group). Subsequently, the concentration and corresponding inhibition rate data were imported into Prism 5 software. The inhibition rate-concentration curve was fitted using the "log(inhibitor) vs. response - Variable slope" method in the software, and the IC50 value of the compound was calculated.

[2] = molecular target: 11β-hydroxylase (CYP11B1) (Homo sapiens, UniProt P15538); assay: Assay of human CYP11B1 inhibition (selectivity CYP11B2/CYP11B1); settings: G402-derived stable cell lines overexpressing human CYP11B1 / CYP11B2; CYP11B1: substrate 11-deoxycortisol, cortisol by HTRF
Procedure: Experimental reagents and instruments: Cortisol kit (Cisbio, Cat#62ALDPEG); Envision plate reader (PerkinElmer)
Experimental principle and method: In humans, 11β-hydroxylase (CYP11B1) is the key enzyme responsible for the biosynthesis of cortisol. In this experiment, a G402-derived stable cell line overexpressing human CYP11B1 was established in vitro. The cells were incubated with using 11-deoxycortisol as the substrate, and the test compound was added simultaneously. After co-incubation, the supernatant was collected, and cortisol levels in the supernatant were then measured by HTRF assay, and the inhibitory effect of the compound on 11β-hydroxylase (CYP11B1) was calculated.
as §1, with “11-Deoxycortisol” for “11-Deoxycorticosterone (11-DOC)”
as §2

IC50 [1] [nM] | Ratio of CYP11B1 IC50 to CYP11B2 IC50 [2] | SMILES
3 to 10 |  | CN1C(=O)CCc2cc(-c3cncc(N4CCN(CC(=O)N[C@H]5C[C@@H](F)C5)CC4)c3)ccc21
< 3 | B (500 ≥ B > 200) | CN1C(=O)CCc2cc(-c3cncc(N4CCN(CC(=O)NC5CC5C(F)(F)F)CC4)c3)ccc21 (stereo not drawn)
< 3 | B (500 ≥ B > 200) | CN1C(=O)CCc2cc(-c3cncc(N4CCN(CC(=O)NC56CC(C)(C5)C6)CC4)c3)ccc21
3 to 10 |  | CN1C(=O)CCc2cc(-c3cncc(N4CCN(CC(=O)NC(C)(C)C)CC4)c3)ccc21
10 to 20 | B (500 ≥ B > 200) | CN1C(=O)CCc2cc(-c3cncc(N4CCN(CC(=O)NC56CC7CC(CC(C7)C5)C6)CC4)c3)ccc21
10 to 20 | B (500 ≥ B > 200) | CC(=O)N[C@H]1CC[C@H](NC(=O)CN2CCN(c3cncc(-c4ccc5c(c4)CCC(=O)N5C)c3)CC2)CC1
3 to 10 | B (500 ≥ B > 200) | COCC1CC(NC(=O)CN2CCN(c3cncc(-c4ccc5c(c4)CCC(=O)N5C)c3)CC2)C1 (stereo not drawn)
< 3 | B (500 ≥ B > 200) | CN1C(=O)CCc2cc(-c3cncc(N4CCN(CC(=O)NC5CC6(CC6)C5)CC4)c3)ccc21
10 to 20 | C (200 ≥ C > 100) | COC1CC(NC(=O)C(C)(C)N2CCN(c3cncc(-c4ccc5c(c4)CCC(=O)N5C)c3)CC2)C1 (stereo not drawn)
3 to 10 |  | CN1C(=O)CCc2cc(-c3cncc(N4CCN(CC(=O)N5CCOCC5)CC4)c3)ccc21
 | D (D ≤ 100) | CC(C)NC(=O)CN1CCN(c2cncc(-c3ccc4c(c3)CCO4)c2)CC1
< 3 | A (A > 500) | CN1C(=O)CCc2cc(-c3cncc(N4CCN(CC(=O)NC5CC(C)(C)C5)CC4)c3)ccc21
3 to 10 | B (500 ≥ B > 200) | CN1C(=O)CCc2cc(-c3cncc(N4CCN(CC(=O)NC5(C)CC5)CC4)c3)ccc21
3 to 10 |  | CN1C(=O)CCc2cc(-c3cncc(N4CCN(CC(=O)N(C)C5CC(F)(F)C5)CC4)c3)ccc21
< 3 |  | CC(C)NC(=O)CN1CCN(c2cncc(-c3ccc4c(c3)sc(=O)n4C)c2)CC1
< 3 | B (500 ≥ B > 200) | CN1C(=O)CCc2cc(-c3cncc(N4CCN(CC(=O)NC5CC(F)C5)CC4)c3)ccc21 (stereo not drawn)
3 to 10 | C (200 ≥ C > 100) | CN1C(=O)CCc2cc(-c3cncc(N4CCN(CC(=O)NC56CC(F)(C5)C6)CC4)c3)ccc21
10 to 20 |  | CN1C(=O)CCc2cc(-c3cncc(N4CCN(CC(=O)N5CC6(CCOCC6)C5)CC4)c3)ccc21
10 to 20 |  | CN1C(=O)CCc2cc(-c3cncc(N4CCN(CC(=O)N[C@@H]5C[C@@H]5F)CC4)c3)ccc21
< 3 | B (500 ≥ B > 200) | CN1C(=O)CCc2cc(-c3cncc(N4CCN(CC(=O)NC5CC(F)(F)C5)CC4)c3)ccc21
< 3 | B (500 ≥ B > 200) | CN1C(=O)CCc2cc(-c3cncc(N4CCN(CC(=O)NC5CC5)CC4)c3)ccc21
< 3 | C (200 ≥ C > 100) | CN1C(=O)CCc2cc(-c3cncc(N4CCN(CC(=O)NC5CC5(F)F)CC4)c3)ccc21 (stereo not drawn)
< 3 |  | CN1C(=O)CCc2cc(-c3cncc(N4CCN(CC(=O)N(C)C5CC5)CC4)n3)ccc21
< 3 | A (A > 500) | CN1C(=O)CCc2cc(-c3cncc(N4CCN(CC(=O)NC56CC(C(F)(F)F)(C5)C6)CC4)n3)ccc21

IC50 [1] [nM] | Ratio of CYP11B1 IC50 to CYP11B2 IC50 [2] | SMILES
3 to 10 | C (200 ≥ C > 100) | COC1CC2(C1)CN(C(=O)CN1CCN(c3cncc(-c4ccc5c(c4)CCC(=O)N5C)c3)CC1)C2
3 to 10 | C (200 ≥ C > 100) | COC12CC(NC(=O)CN3CCN(c4cncc(-c5ccc6c(c5)CCC(=O)N6C)c4)CC3)(C1)C2
< 3 | B (500 ≥ B > 200) | CN1C(=O)CCc2cc(-c3cncc(N4CCN(CC(=O)NC5CCC6(CC5)CC6)CC4)c3)ccc21
< 3 |  | CN1C(=O)CCc2cc(-c3cncc(N4CCN(CC(=O)NC5CCC5)CC4)c3)ccc21
3 to 10 |  | CN1C(=O)CCc2cc(-c3cncc(N4CCN(CC(=O)NC5CC(F)(F)C5)CC4)n3)ccc21
3 to 10 | B (500 ≥ B > 200) | CN1C(=O)CCc2cc(-c3cncc(N4CCN(CC(=O)NC5(C)CC(F)(F)C5)CC4)c3)ccc21
< 3 | C (200 ≥ C > 100) | CN1C(=O)CCc2cc(-c3cncc(N4CCN(CC(=O)NC56CC(C(F)(F)F)(C5)C6)CC4)c3)ccc21
< 3 | B (500 ≥ B > 200) | CC(C)N(C)C(=O)CN1CCN(c2cncc(-c3ccc4c(c3)CCC(=O)N4C)n2)CC1
< 3 | B (500 ≥ B > 200) | CN1C(=O)CCc2cc(-c3cncc(N4CCN(CC(=O)NC5CC(C(F)(F)F)C5)CC4)c3)ccc21 (stereo not drawn)
10 to 20 | C (200 ≥ C > 100) | CN1C(=O)CCc2cc(-c3cncc(N4CCN(CC(=O)NC5COC5)CC4)c3)ccc21
3 to 10 | B (500 ≥ B > 200) | CN1C(=O)CCc2cc(-c3cncc(N4CCN(CC(=O)N5CCC(F)(F)CC5)CC4)c3)ccc21
3 to 10 |  | CN1C(=O)CCc2cc(-c3cncc(N4CCN(CC(=O)N[C@@H]5C[C@H]5F)CC4)c3)ccc21
3 to 10 | B (500 ≥ B > 200) | CN1C(=O)CCc2cc(-c3cncc(N4CCN(CC(=O)NC5CCC(F)(F)CC5)CC4)c3)ccc21
3 to 10 |  | CN1C(=O)CCc2cc(-c3cncc(N4CCN(CC(=O)NC(C)(C)C)CC4)n3)ccc21
< 3 |  | COc1ccc2cc(-c3cncc(N4CCN(CC(=O)NC(C)C)CC4)c3)ccc2n1
< 3 |  | CN1C(=O)CCc2cc(-c3cncc(N4CCN(CC(=O)N(C)C5CC5)CC4)c3)ccc21
3 to 10 |  | CN1C(=O)CCc2cc(-c3cncc(N4CCN(CC(=O)N5CCC6(CC5)CC6)CC4)c3)ccc21
10 to 20 | A (A > 500) | CN1C(=O)CCc2cc(-c3cncc(N4CCN(CC(=O)NC5CCn6ccnc6C5)CC4)c3)ccc21 (stereo not drawn)
3 to 10 |  | CC(C)NC(=O)CN1CCN(c2cncc(-c3cc(F)c4c(c3)OCC(=O)N4C)c2)CC1
< 3 |  | CN1C(=O)CCc2cc(-c3cncc(N4CCN(CC(=O)N5CC(F)(F)C5)CC4)c3)ccc21
3 to 10 |  | CN1C(=O)CCc2cc(-c3cncc(N4CCN(C(C)(C)C(=O)Nc5cccnc5)CC4)c3)ccc21
< 3 | A (A > 500) | CN1C(=O)CCc2cc(-c3cncc(N4CCN(CC(=O)NC5CC6(CCC6)C5)CC4)c3)ccc21
3 to 10 |  | CN1C(=O)CCc2cc(-c3cncc(N4CCN(CC(=O)N[C@H]5C[C@H](F)C5)CC4)c3)ccc21
3 to 10 |  | CN1C(=O)CCc2cc(-c3cncc(N4CCN(CC(=O)NC5CCC(F)(F)CC5)CC4)n3)ccc21
